Assay results: EP2703005A1, “Inhibitors of alpha6 Integrin/E-Cadherin Complex” (Università Degli Studi Di Torino, priority 2012, dated 2014)
No constants are given. Whether binding was seen depends on the method and setting. In cells and extracts the contact can be indirect. Some entries that bind do so weakly or less than the wild type. Where a sequence is shown, tags or fusion partners need not be part of it.

The chains behind the UniProt entries cited, without tags or fusion partners. Where a name states a change or a piece, a line headed by the entry shows the natural chain unless it says otherwise. Residues count along the entry.
UniProt P63092, residues 2-394: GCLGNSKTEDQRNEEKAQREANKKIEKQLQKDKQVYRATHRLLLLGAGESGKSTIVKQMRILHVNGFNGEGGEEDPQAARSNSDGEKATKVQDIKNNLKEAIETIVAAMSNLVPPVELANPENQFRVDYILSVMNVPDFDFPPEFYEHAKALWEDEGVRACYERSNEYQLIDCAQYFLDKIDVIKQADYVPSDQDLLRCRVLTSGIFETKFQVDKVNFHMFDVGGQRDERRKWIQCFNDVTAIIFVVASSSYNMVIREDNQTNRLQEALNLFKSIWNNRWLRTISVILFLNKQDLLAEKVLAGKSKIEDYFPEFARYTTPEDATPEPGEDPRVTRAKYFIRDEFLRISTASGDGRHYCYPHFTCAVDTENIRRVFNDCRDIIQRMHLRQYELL
UniProt P35611: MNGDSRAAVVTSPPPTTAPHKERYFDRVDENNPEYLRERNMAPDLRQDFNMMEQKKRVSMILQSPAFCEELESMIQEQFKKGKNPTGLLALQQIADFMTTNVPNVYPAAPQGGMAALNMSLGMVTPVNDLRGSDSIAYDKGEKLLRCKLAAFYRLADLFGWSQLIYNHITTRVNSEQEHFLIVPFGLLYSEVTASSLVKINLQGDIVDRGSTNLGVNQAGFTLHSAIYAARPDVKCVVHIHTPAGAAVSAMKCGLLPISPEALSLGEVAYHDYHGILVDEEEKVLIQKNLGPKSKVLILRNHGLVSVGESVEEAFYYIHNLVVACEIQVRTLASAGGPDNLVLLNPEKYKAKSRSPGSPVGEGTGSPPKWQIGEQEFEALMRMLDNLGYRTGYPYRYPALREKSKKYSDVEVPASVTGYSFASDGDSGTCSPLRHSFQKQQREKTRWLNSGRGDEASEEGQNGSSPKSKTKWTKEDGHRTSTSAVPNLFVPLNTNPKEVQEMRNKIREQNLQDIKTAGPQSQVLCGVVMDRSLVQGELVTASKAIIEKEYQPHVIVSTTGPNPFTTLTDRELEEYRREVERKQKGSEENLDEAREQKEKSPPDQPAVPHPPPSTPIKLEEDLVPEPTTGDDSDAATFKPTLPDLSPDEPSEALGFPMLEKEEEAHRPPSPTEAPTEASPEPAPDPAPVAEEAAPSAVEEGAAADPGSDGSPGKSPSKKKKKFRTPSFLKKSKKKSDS
UniProt P12830: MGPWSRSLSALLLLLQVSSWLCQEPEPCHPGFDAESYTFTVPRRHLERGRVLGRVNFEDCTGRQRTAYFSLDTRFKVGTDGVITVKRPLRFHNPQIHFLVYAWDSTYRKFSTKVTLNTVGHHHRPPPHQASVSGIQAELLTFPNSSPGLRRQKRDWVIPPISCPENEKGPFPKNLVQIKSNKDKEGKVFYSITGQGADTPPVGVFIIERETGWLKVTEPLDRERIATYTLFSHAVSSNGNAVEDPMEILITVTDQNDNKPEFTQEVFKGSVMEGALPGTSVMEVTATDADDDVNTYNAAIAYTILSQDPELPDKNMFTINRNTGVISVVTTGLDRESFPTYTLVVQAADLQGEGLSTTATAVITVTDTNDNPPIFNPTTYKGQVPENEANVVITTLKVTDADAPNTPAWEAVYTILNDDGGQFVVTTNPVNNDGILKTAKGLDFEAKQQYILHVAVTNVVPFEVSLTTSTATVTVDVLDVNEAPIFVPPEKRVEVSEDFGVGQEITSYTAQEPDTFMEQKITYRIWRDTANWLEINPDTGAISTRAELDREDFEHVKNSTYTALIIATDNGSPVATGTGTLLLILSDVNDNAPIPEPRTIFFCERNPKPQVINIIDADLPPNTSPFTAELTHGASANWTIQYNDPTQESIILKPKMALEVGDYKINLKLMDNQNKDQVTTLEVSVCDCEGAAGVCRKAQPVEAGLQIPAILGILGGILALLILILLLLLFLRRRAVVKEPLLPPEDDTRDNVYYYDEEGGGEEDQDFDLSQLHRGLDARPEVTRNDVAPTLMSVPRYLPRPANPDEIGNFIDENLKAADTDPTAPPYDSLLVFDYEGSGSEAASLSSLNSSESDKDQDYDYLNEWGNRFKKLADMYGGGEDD
UniProt P35580: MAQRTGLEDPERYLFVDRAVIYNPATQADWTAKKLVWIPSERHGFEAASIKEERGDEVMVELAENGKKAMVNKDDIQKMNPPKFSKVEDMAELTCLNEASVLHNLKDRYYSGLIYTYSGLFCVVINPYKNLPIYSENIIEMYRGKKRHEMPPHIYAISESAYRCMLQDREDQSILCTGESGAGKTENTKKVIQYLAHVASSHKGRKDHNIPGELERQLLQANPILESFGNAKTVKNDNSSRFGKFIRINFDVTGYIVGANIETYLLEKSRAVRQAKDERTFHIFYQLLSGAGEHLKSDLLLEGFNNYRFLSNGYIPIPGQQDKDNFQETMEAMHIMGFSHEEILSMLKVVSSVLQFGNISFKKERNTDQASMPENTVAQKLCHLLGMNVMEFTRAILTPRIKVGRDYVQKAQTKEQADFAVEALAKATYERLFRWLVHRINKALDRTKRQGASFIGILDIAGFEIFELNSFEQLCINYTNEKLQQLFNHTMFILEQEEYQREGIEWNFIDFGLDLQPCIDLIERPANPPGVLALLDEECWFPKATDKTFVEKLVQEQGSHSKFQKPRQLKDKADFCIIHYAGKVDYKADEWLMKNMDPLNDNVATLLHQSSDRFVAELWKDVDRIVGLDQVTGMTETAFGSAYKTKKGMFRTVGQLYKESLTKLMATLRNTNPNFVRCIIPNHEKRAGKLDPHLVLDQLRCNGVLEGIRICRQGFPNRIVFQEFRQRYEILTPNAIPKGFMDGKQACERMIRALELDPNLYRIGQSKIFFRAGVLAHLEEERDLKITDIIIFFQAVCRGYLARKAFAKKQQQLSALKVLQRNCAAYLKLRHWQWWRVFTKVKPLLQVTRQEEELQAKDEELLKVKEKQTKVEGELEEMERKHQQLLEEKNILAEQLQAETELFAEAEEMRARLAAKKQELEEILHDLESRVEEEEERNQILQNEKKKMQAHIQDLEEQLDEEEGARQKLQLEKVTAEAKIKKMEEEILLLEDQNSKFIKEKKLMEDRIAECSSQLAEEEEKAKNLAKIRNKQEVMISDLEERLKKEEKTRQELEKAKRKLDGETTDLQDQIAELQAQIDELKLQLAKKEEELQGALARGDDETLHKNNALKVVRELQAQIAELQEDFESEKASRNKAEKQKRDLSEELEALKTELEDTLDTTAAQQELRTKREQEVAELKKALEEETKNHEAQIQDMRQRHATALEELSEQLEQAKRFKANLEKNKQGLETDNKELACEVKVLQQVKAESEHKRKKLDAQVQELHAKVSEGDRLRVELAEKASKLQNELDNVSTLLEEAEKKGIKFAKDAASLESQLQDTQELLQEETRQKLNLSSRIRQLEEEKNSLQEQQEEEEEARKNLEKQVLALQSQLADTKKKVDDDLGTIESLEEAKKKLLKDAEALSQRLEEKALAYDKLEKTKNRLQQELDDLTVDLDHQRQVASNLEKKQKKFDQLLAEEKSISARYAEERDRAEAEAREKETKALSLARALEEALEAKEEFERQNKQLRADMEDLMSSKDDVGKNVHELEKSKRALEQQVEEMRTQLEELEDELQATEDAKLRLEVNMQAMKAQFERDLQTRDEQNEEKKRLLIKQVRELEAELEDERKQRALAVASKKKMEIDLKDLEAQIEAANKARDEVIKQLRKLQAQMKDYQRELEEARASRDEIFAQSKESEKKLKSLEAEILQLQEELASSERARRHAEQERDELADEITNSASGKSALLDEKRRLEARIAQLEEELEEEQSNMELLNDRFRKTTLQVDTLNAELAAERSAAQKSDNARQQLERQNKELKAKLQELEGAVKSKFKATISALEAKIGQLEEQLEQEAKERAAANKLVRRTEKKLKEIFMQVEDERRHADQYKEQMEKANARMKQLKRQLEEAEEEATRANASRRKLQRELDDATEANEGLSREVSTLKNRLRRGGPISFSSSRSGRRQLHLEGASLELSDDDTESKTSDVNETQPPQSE
UniProt P08238, residues 2-724: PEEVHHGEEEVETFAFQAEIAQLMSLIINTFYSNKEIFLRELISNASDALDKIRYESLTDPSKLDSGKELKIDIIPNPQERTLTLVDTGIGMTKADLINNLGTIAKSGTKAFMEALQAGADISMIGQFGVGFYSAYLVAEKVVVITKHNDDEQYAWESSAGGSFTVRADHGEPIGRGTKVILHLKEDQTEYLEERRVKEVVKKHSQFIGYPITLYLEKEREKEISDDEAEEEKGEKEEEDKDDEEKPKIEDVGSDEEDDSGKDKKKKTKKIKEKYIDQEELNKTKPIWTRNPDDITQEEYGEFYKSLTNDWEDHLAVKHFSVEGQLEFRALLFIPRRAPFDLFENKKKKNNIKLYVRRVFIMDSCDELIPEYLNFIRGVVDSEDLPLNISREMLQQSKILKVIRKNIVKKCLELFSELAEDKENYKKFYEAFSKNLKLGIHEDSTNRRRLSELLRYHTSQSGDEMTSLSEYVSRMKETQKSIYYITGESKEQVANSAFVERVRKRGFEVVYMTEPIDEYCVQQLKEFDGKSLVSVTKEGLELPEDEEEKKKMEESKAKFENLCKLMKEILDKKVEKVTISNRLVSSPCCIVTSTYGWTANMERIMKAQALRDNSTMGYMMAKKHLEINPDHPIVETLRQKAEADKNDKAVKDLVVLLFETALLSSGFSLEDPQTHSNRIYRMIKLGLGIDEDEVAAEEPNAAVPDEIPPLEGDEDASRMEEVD
UniProt Q00610, residues 2-1675: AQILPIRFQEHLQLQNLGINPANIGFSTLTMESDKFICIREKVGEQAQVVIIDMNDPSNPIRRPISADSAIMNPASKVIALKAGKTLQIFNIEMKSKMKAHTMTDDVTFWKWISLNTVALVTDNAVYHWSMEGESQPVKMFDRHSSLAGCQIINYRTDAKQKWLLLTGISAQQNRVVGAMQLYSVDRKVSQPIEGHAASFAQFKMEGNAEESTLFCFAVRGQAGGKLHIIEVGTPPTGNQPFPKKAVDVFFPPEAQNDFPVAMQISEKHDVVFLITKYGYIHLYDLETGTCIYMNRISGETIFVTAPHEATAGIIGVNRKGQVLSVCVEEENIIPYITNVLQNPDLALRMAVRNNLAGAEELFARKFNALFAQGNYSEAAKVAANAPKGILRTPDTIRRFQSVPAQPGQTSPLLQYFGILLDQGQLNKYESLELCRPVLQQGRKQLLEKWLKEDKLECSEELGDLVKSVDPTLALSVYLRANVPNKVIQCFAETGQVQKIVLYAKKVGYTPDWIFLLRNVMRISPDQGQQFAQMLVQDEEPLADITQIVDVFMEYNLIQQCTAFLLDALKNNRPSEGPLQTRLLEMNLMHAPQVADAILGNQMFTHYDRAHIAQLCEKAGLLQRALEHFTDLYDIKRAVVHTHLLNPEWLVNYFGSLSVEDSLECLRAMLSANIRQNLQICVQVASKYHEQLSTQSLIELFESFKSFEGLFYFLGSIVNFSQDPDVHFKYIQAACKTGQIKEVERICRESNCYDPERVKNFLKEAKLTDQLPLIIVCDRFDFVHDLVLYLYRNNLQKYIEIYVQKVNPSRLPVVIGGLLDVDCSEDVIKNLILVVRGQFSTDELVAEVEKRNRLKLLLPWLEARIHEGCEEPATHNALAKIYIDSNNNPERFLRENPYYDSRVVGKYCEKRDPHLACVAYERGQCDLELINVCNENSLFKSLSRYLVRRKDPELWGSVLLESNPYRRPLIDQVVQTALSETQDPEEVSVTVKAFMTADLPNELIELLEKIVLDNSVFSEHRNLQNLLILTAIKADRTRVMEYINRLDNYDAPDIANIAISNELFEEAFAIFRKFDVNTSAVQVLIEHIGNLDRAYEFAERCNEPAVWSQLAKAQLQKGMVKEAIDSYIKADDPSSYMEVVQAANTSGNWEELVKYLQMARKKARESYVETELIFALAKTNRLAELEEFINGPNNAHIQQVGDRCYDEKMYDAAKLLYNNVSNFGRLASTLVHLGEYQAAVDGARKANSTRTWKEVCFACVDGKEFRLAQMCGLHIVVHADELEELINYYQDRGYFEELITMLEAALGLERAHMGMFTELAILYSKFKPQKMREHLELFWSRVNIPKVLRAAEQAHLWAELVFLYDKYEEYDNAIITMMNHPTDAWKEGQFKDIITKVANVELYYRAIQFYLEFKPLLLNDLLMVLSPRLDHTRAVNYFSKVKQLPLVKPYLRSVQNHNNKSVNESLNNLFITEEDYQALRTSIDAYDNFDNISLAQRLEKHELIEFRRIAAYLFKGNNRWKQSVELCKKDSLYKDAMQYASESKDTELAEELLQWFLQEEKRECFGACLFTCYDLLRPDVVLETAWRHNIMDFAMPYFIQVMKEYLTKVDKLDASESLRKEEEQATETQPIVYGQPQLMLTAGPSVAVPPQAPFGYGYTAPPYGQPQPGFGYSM

What was measured:
annexin A4 (human) = target: T1, annexin A4 (human) (UniProt P09525); assay: GST pull-down from NCI-H630 lysate (HepG2 lysate as control), LC-MS/MS; MASCOT score 237
T1 sequence (looked up): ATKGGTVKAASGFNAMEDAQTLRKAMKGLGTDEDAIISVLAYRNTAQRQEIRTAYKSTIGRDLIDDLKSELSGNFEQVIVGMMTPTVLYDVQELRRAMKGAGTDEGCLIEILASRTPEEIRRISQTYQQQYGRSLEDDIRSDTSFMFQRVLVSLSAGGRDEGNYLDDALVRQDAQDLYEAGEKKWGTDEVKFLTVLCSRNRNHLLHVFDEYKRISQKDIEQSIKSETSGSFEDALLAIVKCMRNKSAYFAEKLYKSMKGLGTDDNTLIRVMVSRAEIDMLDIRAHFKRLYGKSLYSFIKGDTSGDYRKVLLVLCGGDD

[1] = target: G nucleotide-binding protein (human) (UniProt P63092); assay: GST pull-down from NCI-H630 lysate (HepG2 lysate as control), LC-MS/MS; MASCOT score 98
α6 integrin (human) = target: T2, α6 integrin (human) (UniProt P23229); assay: as above
T2 sequence: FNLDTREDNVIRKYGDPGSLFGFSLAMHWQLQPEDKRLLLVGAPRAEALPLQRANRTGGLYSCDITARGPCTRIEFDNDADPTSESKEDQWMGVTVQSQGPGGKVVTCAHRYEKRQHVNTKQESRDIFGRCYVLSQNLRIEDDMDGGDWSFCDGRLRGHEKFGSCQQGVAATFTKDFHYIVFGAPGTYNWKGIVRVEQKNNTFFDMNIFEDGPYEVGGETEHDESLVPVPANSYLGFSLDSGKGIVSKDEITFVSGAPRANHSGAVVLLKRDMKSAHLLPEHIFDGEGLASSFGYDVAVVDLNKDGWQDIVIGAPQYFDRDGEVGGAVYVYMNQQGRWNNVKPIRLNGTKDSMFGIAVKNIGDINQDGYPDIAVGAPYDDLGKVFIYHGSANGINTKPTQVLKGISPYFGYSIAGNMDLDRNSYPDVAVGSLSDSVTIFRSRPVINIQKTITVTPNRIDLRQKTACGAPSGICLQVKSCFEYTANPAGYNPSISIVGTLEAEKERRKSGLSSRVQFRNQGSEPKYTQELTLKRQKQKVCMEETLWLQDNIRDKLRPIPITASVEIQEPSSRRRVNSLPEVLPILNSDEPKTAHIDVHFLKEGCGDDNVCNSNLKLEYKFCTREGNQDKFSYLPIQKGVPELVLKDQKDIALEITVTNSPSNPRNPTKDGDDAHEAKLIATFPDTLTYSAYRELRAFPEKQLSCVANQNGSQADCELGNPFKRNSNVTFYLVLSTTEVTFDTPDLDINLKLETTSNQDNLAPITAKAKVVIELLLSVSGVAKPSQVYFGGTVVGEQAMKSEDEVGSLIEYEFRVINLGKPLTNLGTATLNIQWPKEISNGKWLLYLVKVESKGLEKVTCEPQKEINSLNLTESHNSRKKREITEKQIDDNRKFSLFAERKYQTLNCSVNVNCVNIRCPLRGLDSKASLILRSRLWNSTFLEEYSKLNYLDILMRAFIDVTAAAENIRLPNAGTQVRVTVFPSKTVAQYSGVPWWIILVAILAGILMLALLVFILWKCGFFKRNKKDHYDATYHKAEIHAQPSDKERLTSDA

α-adducin (human) = α-adducin (human) (UniProt P35611); assay: as above
E-cadherin (human) = E-cadherin (human) (UniProt P12830); assay: GST pull-down from NCI-H630 lysate (HepG2 lysate as control), LC-MS/MS; MASCOT score 173
[2] = target: T3, voltage-dependent channel (human) (UniProt P45880); assay: GST pull-down from NCI-H630 lysate (HepG2 lysate as control), LC-MS/MS; MASCOT score 111
T3 sequence (looked up): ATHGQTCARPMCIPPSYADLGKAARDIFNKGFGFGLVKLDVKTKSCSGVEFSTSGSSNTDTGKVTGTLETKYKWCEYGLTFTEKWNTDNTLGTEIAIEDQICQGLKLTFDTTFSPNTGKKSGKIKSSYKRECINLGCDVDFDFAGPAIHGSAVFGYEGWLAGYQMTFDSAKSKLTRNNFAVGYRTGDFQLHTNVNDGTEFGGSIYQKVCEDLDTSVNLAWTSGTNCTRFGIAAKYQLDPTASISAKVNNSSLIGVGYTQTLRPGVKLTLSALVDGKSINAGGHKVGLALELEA

myosin-10 (human) = myosin-10 (human) (UniProt P35580); assay: GST pull-down from NCI-H630 lysate (HepG2 lysate as control), LC-MS/MS; MASCOT score 235
[3] = target: T4, stomatin-like protein 2 (human) (UniProt Q9UJZ1); assay: GST pull-down from NCI-H630 lysate (HepG2 lysate as control), LC-MS/MS; MASCOT score 81
T4 sequence (looked up): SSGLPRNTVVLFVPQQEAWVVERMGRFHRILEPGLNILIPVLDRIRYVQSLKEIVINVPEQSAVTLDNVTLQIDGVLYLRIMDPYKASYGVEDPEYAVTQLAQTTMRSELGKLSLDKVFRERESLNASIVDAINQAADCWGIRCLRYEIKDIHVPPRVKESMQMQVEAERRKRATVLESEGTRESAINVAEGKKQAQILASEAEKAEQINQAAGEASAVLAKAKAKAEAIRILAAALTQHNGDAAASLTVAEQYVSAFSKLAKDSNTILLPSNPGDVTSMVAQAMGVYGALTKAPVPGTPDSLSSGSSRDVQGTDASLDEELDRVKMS

HSP 90-α (human) = HSP 90-α (human) (UniProt P07900); assay: GST pull-down from NCI-H630 lysate (HepG2 lysate as control), LC-MS/MS; MASCOT score 125 (one score for HSP 90-α and HSP 90-β)
HSP 90-β (human) = HSP 90-β (human) (UniProt P08238); assay: as above
[4] = target: clathrin heavy chain 1 (human) (UniProt Q00610); assay: GST pull-down from NCI-H630 lysate (HepG2 lysate as control), LC-MS/MS; MASCOT score 1556

- binding (annexin A4 (human)): binds
- binding [1]: binds
- binding (α6 integrin (human)): binds
- binding (α-adducin (human)): binds
- binding (E-cadherin (human)): binds
- binding [2]: binds
- binding (myosin-10 (human)): binds
- binding [3]: binds
- binding (HSP 90-α (human)): binds
- binding (HSP 90-β (human)): binds
- binding [4]: binds
Binder: CGIYRLRSC (peptide, not shown: a dimerising Fc or GST) […-GST]
